{"source": "PubChem BioAssay AID686943 (Drosophila RNAi Screening Center, 2013)", "test": "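Search across the genome for regulators of signalling from receptor tyrosine kinase to ERK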 (primary screen)", "cells": "Drosophila S2R+ haemocyte-like cells expressing YFP-tagged ERK (Rolled)", "reagent": "long dsRNA against Drosophila genes", "conditions": "insulin stimulation versus unstimulated cells; dose and duration not given", "read-out": "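Per-plate z-scores of phospho-ERK immunostaining normalised to YFP-tagged ERK, measured with and without insulin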", "reading the numbers": "replicate 1, z-score of dpERK with insulin and replicate 2, z-score of dpERK with insulin: higher = more active ERK per ERK-YFP after insulin", "note": "The deposit covers about 23,000 reagents; shown is an unselected part of those with a known target gene and a result. 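Extra replicates exist only for a retested subset of genes; insulin dose and duration not given; both raised and lowered dpERK matter.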 Not all columns of the deposit are shown. Not given: the amount of reagent, the time to read-out."}
{"gene knocked down": "CG17646", "amplicon": "DRSC00507", "replicate 1, z-score of dpERK with insulin": -0.37, "replicate 2, z-score of dpERK with insulin": 0.23}
{"gene knocked down": "pip (pipe)", "amplicon": "DRSC11382", "replicate 1, z-score of dpERK with insulin": -1.26, "replicate 2, z-score of dpERK with insulin": -0.33}
{"gene knocked down": "CG13473", "amplicon": "DRSC10017", "replicate 1, z-score of dpERK with insulin": 0.29, "replicate 2, z-score of dpERK with insulin": -0.6}
{"gene knocked down": "CG32563", "amplicon": "DRSC19934", "replicate 1, z-score of dpERK with insulin": -0.35, "replicate 2, z-score of dpERK with insulin": 0.6}
{"gene knocked down": "t-cup (tetleys-cup)", "amplicon": "DRSC01254", "replicate 1, z-score of dpERK with insulin": 0.87, "replicate 2, z-score of dpERK with insulin": 2.44}

As entered above:
Under “replicate 1, z-score of dpERK with insulin”, CG13473 [DRSC10017] reads 0.29
Under “replicate 1, z-score of dpERK with insulin”, t-cup (tetleys-cup) [DRSC01254] reads 0.87

The list goes on.
{"gene knocked down": "Fbl6 (F-box and leucine-rich repeat protein 6)", "amplicon": "DRSC06335", "replicate 1, z-score of dpERK with insulin": 0.63, "replicate 2, z-score of dpERK with insulin": 0.61}
{"gene knocked down": "CG12307", "amplicon": "DRSC02159", "replicate 1, z-score of dpERK with insulin": -0.01, "replicate 2, z-score of dpERK with insulin": -0.39}
{"gene knocked down": "CG4691", "amplicon": "DRSC01950", "replicate 1, z-score of dpERK with insulin": -0.26, "replicate 2, z-score of dpERK with insulin": -0.72}
{"gene knocked down": "Ir25a (Ionotropic receptor 25a)", "amplicon": "DRSC00462", "replicate 1, z-score of dpERK with insulin": 0.16, "replicate 2, z-score of dpERK with insulin": 0.09}
{"gene knocked down": "CG15059", "amplicon": "DRSC19633", "replicate 1, z-score of dpERK with insulin": -0.03, "replicate 2, z-score of dpERK with insulin": 0.24}
{"gene knocked down": "Syn1 (Syntrophin-like 1)", "amplicon": "DRSC11803", "replicate 1, z-score of dpERK with insulin": 0.27, "replicate 2, z-score of dpERK with insulin": -0.89}
{"gene knocked down": "Syn1 (Syntrophin-like 1)", "amplicon": "DRSC11804", "replicate 1, z-score of dpERK with insulin": 0.04, "replicate 2, z-score of dpERK with insulin": 0.48}
